The values that follow come from PMC4144769.

Results are given in words; binding and its absence hold for the method and conditions named. Binding seen in cells or lysates may run through a third protein.

The assay deals with T1, mitogen-activated protein kinase 3 (MPK3) (Arabidopsis (endogenous in WT leaves)) (UniProt Q39023).
T1 sequence: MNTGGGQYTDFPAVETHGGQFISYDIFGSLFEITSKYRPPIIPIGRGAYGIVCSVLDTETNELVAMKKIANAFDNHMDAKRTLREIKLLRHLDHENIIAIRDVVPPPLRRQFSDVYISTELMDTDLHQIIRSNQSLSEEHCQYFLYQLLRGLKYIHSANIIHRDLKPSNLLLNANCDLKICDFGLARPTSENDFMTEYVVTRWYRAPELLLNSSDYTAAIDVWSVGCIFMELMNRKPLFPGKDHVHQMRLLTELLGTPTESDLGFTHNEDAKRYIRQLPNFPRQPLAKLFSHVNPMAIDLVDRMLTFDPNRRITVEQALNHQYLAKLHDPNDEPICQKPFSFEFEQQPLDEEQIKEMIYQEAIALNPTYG
The experiment in a line: co-IP; total protein extracts of WT Arabidopsis leaves, RL-pre-treated, at the indicated times after inoculation with Pst-DC3000; immunoprecipitation with anti-ERK antibody (4h) and protein A beads, overnight at 4 °C, washed four times with PBS pH 7.4; LOX detected with rabbit polyclonal anti-LOX antibody.

With “lipoxygenase (LOX) (Arabidopsis (endogenous in WT leaves))”, the binding result is “no binding”.
